# Data as given in PubChem BioAssay (NCATS).
# Inconclusive results, whose numbers are uncertain, are shown with a selection of clear calls. Where the call is inconclusive, the potency comes from a doubtful curve fit. The source made the active and inactive calls. Calls follow the shape of the dose curve; as a rule, active = well fitted activation curve with a large enough effect in the signal ratio; inconclusive = small, poorly fitted or top-dose-only effect, or effect the other way, or a change in a side signal; inactive = flat fitted curve, though single readings scatter; the % refers to the signal ratio. Residues, ends and D or L forms follow the SMILES beside them.
# Assay: qHTS assay to identify small molecules that stimulate interleukin-8 (IL-8) secretion (AID 651758); as to activation: 0% is about no effect
# Details: HTRF ratio (665/615), at 92.2 µM (top of the series)
# Source text: National Center for Advancing Translational Sciences [NCATS]
# NIH Chemical Genomics Center [NCGC]
# National Institutes of Environmental Health Sciences [NIEHS]
# National Toxicology Program [NTP]
# Interleukin-8 is a 8 kDa chemokine produced by macrophages and other cells like epithelial cells that is often associated with inflammation. Interleukin-8 secretion is a key parameter in localized inflammation. There is a growing concern for some of environmental chemicals which may contribute the increasing the incidence of inflammation. A homogeneous IL-8 assay using Time Resolved fluorescence (HTRF) technology based on Time Resolved Fluorescent Resonance Energy Transfer (TR-FRET) allows to measure IL-8 secreted from the cells in a 1536-well plate format.
# THP-1 cells were dispensed at 2000 cells/5ul/well in 1536-well white solid plates. After addition of 23 nl of compound, positive controls and DMSO only, the assay plates were incubated at 37 C for 16 hrs, followed by addition of 5 uL of mixture of cryptate labeled and XL665 labeled anti-IL-8 antibodies. After the assay plates were incubated at room temperature for 1-3 hrs, the plates were measured by an EnVision plate reader.
# Potency is read from the fitted curve at half-maximal effect.
row,SMILES,activation
1,CS(=O)(=O)OCCCCOS(C)(=O)=O,inactive: -3.54%

# Same assay, conditions: HTRF ratio (665/615); activation: at 92.2 µM (top of the series)
SMILES,Potency,activation
CCc1nc(N)nc(N)c1-c1ccc(Cl)cc1,inactive,–
Cn1c(=O)c2[nH]cnc2n(C)c1=O,–,inconclusive: 13.4%
Cc1cn([C@H]2C=C[C@@H](CO)O2)c(=O)[nH]c1=O,"inconclusive: 75 µM [activator, single point]",inconclusive: 10.3%
O=C(N[C@H](CO)[C@H](O)c1ccc([N+](=O)[O-])cc1)C(Cl)Cl,"inconclusive: 66.8 µM [inhibitor, partial curve]",–
CS(=O)(=O)OCCCCOS(C)(=O)=O,–,inconclusive: -6.48%
NCCS(=O)(=O)O,–,inconclusive: 19.7%
COC(=O)[C@H](Cc1ccccc1)NC(=O)[C@@H](N)CC(=O)O (H-Asp-Phe-OMe),inactive,–
Clc1ccc(C(c2ccccc2Cl)C(Cl)Cl)cc1 (stereo not drawn),–,inconclusive: -24.6%
O=C(O)c1cc(=O)[nH]c(=O)[nH]1,–,inconclusive: 9.72%
NS(=O)(=O)c1cc2c(cc1Cl)NCNS2(=O)=O,–,inconclusive: -9.59%
Cc1noc(NS(=O)(=O)c2ccc(N)cc2)c1C,"inconclusive: 66.8 µM [inhibitor, partial curve, poor fit]",–
CCCC(CCC)C(=O)O,inactive,–
Cc1ncc([N+](=O)[O-])n1CCO,inactive,–
Cc1cc(O)c2c(c1)C(=O)c1cccc(O)c1C2=O,inactive,–
CCCc1cc(=O)[nH]c(=S)[nH]1,"inconclusive: 75 µM [rising, single point]",–
O=c1[nH]cnc2c1ncn2[C@H]1CC[C@@H](CO)O1,inactive,–

# Quoted at random: two records from the list
SMILES,Potency,activation
Cc1ncc([N+](=O)[O-])n1CCO,inactive,–
NS(=O)(=O)c1cc2c(cc1Cl)NCNS2(=O)=O,–,inconclusive: -9.59%
